Source: PubChem BioAssay AID504804 (Drosophila RNAi Screening Center, 2011)

Aim: 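dsRNAs that improve Kc cell survival under doxorubicin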 (primary screen)
Cells: Drosophila Kc cells
Knock-down reagent: long dsRNA against Drosophila genes, 0.5 µg dsRNA per well
Time to read-out: 96 h (48 h knock-down, then 48 h drug)
Treatment: doxorubicin 5 µg/ml for 48 h, added 48 h after dsRNA
Measurement: 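Luminescent ATP counts per replicate, not normalised, reflecting viable cells after 48 h dsRNA knock-down followed by 48 h of 5 µg/ml doxorubicin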
Direction: raw ATP luminescence: higher = more viable cells, protection from doxorubicin
Call rule: 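z-score of 2 or more over plate mean in both duplicates, retained only when retests and separate dsRNAs confirm the protection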
In all, the deposit lists about 19,000 reagents; shown is a random part of those that have a named target and a result. Over the whole deposit, 47 (0.25%) are marked active. 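Signals are raw, not normalised; exact z-scores behind calls not deposited; actives needed confirmation, so some wells reaching 2 SD are inactive.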 Unmarked entries are inactive. The numbers tell different reagents against one gene apart.

CG15570 (GeneID 31366)
- raw ATP luminescence, replicate 1: 45850
- raw ATP luminescence, replicate 2: 52040

Atg7 (GeneID 37141)
- raw ATP luminescence, replicate 1: 1.32e5
- raw ATP luminescence, replicate 2: 1.32e5

ProtA (GeneID 34866)
- raw ATP luminescence, replicate 1: 43100
- raw ATP luminescence, replicate 2: 46970

ben (GeneID 32358)
- raw ATP luminescence, replicate 1: 2.81e5
- raw ATP luminescence, replicate 2: 3.25e5

CG7203 (GeneID 34055)
- raw ATP luminescence, replicate 1: 54900
- raw ATP luminescence, replicate 2: 77523

CG6465 (GeneID 41274)
- raw ATP luminescence, replicate 1: 40617
- raw ATP luminescence, replicate 2: 24360

CG42686 (retired record) (GeneID 42674) #1
- raw ATP luminescence, replicate 1: 13630
- raw ATP luminescence, replicate 2: 16420

CG42686 (retired record) (GeneID 42674) #2
- raw ATP luminescence, replicate 1: 55350
- raw ATP luminescence, replicate 2: 57890

CG17839 (GeneID 39616) #1
- raw ATP luminescence, replicate 1: 53417
- raw ATP luminescence, replicate 2: 41173

CG17839 (GeneID 39616) #2
- raw ATP luminescence, replicate 1: 69130
- raw ATP luminescence, replicate 2: 48623

sage (GeneID 41105)
- raw ATP luminescence, replicate 1: 1.68e5
- raw ATP luminescence, replicate 2: 1.73e5

mRpL42 (GeneID 36050)
- raw ATP luminescence, replicate 1: 35703
- raw ATP luminescence, replicate 2: 79377
